The values that follow come from the M2OR odorant receptor database.

Chains of the proteins cited; added tags and fusions are not shown. A line that says so, or that is headed by a name, gives the form on record, which may keep a tag or linker.
OR2W1, as listed by the source: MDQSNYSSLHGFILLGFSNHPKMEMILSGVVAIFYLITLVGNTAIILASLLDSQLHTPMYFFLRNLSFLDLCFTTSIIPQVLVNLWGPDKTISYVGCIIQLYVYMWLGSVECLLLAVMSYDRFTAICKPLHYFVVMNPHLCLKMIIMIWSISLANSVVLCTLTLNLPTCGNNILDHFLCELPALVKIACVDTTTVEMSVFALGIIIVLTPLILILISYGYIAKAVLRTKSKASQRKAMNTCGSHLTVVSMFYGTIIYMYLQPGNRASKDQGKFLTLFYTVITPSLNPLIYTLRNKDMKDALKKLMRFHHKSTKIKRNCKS

Each structure is given as a SMILES string. Substitutions are numbered along the chain they refer to. Only a part is listed here, and it is no random draw. Calls are pooled over several reports, among them a noisy single-well screen. The list shows a part of the results. This is one part of the list.

What all share (conditions): stereoisomer not certain
Assay [1] relates to T1, OR2W1.
T1 sequence (whole entry): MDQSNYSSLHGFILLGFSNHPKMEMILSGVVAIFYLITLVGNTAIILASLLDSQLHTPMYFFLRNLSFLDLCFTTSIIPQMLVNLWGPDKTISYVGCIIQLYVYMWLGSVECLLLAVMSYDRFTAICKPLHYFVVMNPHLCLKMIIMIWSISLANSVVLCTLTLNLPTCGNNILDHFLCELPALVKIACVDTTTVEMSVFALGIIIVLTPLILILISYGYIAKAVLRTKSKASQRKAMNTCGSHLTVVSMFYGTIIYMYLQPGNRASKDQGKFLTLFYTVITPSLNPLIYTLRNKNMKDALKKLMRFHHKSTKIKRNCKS
The essentials: (§1)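 Assay methods differ from source to source, frequently being transient luciferase assays in mammalian cell lines. For each receptor–molecule pair, the label responsive (active) applies when the original authors judged the measured signal statistically different from baseline, and non-responsive (inactive) applies otherwise.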

The test system of a further assay is T2, OR2W3.
T2 sequence (whole entry): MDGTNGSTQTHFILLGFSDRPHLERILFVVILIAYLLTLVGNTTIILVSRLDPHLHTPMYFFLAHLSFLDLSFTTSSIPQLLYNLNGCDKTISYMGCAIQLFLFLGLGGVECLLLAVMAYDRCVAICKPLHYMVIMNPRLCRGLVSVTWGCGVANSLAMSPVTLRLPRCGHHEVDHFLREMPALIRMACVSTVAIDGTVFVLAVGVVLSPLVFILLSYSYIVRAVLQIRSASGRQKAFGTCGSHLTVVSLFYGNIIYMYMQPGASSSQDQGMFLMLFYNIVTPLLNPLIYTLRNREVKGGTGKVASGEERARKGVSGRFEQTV
The essentials: as §1

For another assay, the target named is T3, OR2W5P (Homo sapiens) (UniProt A6NFC9).
T3 sequence (whole entry): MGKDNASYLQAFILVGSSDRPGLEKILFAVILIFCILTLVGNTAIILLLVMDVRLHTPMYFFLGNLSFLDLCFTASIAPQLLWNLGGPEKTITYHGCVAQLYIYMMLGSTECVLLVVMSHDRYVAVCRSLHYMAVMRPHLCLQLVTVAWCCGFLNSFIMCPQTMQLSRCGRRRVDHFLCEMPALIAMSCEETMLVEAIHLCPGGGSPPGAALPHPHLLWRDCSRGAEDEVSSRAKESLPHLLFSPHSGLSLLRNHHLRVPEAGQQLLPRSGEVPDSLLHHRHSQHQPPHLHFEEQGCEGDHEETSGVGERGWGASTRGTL
The essentials: as §1

The test system of a further assay is T4, OR2Y1.
T4 sequence (whole entry): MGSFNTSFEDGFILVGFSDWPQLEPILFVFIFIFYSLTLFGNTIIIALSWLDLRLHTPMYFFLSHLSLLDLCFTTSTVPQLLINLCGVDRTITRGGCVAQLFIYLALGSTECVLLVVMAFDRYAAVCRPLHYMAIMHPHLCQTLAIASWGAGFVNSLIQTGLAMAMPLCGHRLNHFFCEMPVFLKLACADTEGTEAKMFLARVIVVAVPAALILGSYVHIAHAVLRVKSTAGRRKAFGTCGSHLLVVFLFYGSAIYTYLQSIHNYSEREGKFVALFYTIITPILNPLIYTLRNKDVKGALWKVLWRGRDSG
The essentials:
as §1

The next assay addresses T5, OR2Z1 (Homo sapiens) (UniProt Q8NG97).
T5 sequence (whole entry): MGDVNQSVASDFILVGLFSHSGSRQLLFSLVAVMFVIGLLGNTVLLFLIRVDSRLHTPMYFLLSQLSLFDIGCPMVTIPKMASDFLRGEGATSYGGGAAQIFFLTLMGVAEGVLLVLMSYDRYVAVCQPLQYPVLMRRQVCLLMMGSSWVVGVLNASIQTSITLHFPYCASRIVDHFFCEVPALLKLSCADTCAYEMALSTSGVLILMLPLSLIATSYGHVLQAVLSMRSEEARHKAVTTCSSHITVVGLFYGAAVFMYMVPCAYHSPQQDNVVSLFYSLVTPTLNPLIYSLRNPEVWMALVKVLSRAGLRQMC
The essentials:
as §1

A further assay addresses T6, OR3A1 (Homo sapiens) (UniProt P47881).
T6 sequence (whole entry): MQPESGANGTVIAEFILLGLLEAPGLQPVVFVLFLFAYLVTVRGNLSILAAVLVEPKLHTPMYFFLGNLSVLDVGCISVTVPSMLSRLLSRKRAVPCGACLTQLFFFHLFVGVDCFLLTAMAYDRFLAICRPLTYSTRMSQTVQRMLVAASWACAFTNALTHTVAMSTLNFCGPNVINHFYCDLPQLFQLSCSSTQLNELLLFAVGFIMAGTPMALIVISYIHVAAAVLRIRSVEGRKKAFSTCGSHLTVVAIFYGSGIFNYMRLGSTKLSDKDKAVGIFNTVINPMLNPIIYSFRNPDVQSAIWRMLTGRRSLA
The procedure, abridged: as §1

The next assay addresses T7, OR3A2 (Homo sapiens) (UniProt P47893).
T7 sequence (whole entry): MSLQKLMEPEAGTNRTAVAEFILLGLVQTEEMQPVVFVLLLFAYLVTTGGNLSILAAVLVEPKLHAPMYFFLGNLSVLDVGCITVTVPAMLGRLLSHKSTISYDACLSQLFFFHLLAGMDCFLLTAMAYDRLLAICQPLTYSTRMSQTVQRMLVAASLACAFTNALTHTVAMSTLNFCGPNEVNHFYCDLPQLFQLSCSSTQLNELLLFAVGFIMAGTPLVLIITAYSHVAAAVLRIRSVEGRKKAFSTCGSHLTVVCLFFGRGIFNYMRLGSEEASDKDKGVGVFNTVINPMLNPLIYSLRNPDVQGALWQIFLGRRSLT
The essentials:
as §1

The next assay relates to T8, OR3A3.
T8 sequence (whole entry): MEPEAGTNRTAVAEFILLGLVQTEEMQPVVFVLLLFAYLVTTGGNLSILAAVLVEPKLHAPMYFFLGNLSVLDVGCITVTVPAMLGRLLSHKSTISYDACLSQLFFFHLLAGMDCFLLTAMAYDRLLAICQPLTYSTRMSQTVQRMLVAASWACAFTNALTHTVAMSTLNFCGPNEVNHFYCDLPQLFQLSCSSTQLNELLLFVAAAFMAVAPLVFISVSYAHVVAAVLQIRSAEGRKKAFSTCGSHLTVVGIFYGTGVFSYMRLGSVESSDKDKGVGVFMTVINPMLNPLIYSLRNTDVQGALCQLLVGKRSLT
The essentials:
as §1

A further assay concerns T9, OR3A4.
T9 sequence (whole entry): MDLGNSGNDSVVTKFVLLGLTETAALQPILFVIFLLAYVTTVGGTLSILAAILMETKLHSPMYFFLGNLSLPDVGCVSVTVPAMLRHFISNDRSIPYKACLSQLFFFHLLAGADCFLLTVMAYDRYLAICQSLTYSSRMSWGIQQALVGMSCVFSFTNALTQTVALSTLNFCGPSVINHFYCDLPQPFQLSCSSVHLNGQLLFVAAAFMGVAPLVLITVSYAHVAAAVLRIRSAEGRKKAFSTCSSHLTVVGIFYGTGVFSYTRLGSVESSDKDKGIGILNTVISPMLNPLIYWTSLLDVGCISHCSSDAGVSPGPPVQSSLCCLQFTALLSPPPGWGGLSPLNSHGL
The procedure, abridged: as §1

The next assay concerns the target T10, OR4A16 (Homo sapiens) (UniProt Q8NH70).
T10 sequence (whole entry): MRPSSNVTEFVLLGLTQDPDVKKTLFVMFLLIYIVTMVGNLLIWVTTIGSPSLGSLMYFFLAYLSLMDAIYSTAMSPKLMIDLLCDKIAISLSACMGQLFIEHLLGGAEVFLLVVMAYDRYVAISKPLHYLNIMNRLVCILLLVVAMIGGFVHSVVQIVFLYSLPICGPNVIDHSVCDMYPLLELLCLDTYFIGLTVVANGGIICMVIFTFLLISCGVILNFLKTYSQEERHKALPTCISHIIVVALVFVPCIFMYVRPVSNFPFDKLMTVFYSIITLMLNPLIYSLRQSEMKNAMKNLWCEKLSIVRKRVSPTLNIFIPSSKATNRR
The procedure, abridged:
as §1

The next assay deals with T11, OR4A4P (Homo sapiens) (UniProt Q8NGN8).
T11 sequence (whole entry): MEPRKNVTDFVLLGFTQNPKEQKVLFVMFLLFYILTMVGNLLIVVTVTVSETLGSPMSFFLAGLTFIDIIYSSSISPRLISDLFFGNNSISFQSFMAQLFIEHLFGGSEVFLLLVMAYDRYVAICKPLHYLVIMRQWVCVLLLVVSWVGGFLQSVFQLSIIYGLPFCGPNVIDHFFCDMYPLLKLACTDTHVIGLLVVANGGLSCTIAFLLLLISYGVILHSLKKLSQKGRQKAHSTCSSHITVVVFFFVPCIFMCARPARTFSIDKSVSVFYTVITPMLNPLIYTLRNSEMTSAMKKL
The essentials: as §1

In a further assay the target is T12, OR4A5 (Homo sapiens) (UniProt Q8NH83).
T12 sequence (whole entry): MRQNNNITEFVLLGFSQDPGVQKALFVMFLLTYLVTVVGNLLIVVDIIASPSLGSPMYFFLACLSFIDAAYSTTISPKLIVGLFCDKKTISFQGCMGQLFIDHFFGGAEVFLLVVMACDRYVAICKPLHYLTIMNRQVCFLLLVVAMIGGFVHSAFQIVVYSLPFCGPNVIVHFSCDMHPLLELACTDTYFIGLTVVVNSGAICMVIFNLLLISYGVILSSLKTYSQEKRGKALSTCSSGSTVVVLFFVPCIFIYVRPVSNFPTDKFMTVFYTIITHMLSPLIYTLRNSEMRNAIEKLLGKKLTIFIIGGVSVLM
The procedure, abridged: as §1

Another assay has as its system T13, OR4A5.
T13 sequence (whole entry): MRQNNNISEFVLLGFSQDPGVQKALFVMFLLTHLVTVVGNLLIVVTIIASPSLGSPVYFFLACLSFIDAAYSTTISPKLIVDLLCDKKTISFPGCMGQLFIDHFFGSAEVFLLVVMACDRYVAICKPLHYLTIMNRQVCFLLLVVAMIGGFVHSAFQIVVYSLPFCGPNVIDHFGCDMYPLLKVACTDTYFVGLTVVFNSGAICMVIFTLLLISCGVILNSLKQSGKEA
The procedure, abridged:
as §1

The target in the next assay is T14, OR4B1 (Homo sapiens) (UniProt Q8NGF8).
T14 sequence (whole entry): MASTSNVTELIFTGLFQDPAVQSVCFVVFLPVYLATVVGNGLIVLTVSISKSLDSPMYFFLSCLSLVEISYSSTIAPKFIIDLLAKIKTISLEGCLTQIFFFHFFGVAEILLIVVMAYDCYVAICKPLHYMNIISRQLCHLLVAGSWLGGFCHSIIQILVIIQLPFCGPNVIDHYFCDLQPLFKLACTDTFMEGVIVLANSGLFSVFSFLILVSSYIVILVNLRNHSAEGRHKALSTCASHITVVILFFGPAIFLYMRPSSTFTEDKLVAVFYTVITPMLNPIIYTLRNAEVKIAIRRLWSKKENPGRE
The procedure, abridged: as §1

A further assay has as its target T15, OR4C11 (Homo sapiens) (UniProt Q6IEV9).
T15 sequence (whole entry): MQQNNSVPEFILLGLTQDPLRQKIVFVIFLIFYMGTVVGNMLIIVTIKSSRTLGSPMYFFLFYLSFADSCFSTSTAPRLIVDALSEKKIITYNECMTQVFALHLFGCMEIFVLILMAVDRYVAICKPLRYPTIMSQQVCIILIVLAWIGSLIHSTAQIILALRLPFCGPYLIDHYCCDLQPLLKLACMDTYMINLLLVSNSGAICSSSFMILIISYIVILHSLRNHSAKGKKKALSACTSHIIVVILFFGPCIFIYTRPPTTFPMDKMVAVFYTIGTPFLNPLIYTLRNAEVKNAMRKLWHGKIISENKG
The essentials:
as §1

Assay [2] concerns T16, OR2W1.
T16 sequence (whole entry): T1 sequence (whole entry) with M81V, N296D
The essentials:
as §1
The source holds these as a separate data set.

In a further assay the target is T17, OR2W3 (Homo sapiens) (UniProt Q7Z3T1).
T17 sequence (whole entry): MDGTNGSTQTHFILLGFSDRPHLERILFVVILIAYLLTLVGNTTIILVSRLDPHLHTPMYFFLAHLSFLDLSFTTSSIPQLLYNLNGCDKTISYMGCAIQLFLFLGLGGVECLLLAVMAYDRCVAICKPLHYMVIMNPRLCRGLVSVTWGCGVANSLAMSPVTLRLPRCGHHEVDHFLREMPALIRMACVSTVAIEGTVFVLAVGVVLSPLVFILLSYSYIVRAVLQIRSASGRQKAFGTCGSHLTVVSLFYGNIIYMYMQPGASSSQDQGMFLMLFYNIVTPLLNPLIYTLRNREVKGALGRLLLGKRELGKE
The essentials:
as §1

For the compound `CCCCCCOC(=O)CCC`, the “odorant receptor agonist call” value in the assay on OR2W1 [1], in the assay on OR2W3, in the assay with OR2W5P (Homo sapiens), in the assay with OR2Y1, with OR2Z1 (Homo sapiens) and in the assay with OR3A1 (Homo sapiens) was “inactive” throughout. Besides, the “odorant receptor agonist call” value with OR3A2 (Homo sapiens), with OR3A3, with OR3A4, in the assay with OR4A16 (Homo sapiens), with OR4A4P (Homo sapiens) and with OR4A5 (Homo sapiens) was “inactive” in each case. Further, the “odorant receptor agonist call” value in the assay on OR4A5, in the assay with OR4B1 (Homo sapiens) and with OR4C11 (Homo sapiens) was “inactive” throughout.

For `CCCCCCCC=O`, the “odorant receptor agonist call” value in the assay with OR2W1 [1] and in the assay on OR2W1 [2] was “active” in each case. The “odorant receptor agonist call” value in the assay with OR2W3 (Homo sapiens), in the assay with OR2W3, in the assay with OR2W5P (Homo sapiens), in the assay with OR2Y1, with OR2Z1 (Homo sapiens) and with OR3A1 (Homo sapiens) was “inactive” in each case. Also, the “odorant receptor agonist call” value with OR3A2 (Homo sapiens), with OR3A3, in the assay on OR3A4, with OR4A16 (Homo sapiens), with OR4A4P (Homo sapiens) and with OR4A5 (Homo sapiens) was “inactive” throughout. Moreover, the “odorant receptor agonist call” value in the assay with OR4A5, with OR4B1 (Homo sapiens) and with OR4C11 (Homo sapiens) was “inactive” throughout.
